Source: PMC12463132 (Advanced Science, 2025)
Results are given in words; binding and its absence hold for the method and conditions named. Some binding calls cover weakened binding; strength is not graded here.

By UniProt entry, the sequences of proteins in these tests, tags left out. Residues count along the entry.
UniProt Q86WV6, residues 335-379: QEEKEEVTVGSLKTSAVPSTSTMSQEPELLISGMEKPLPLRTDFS

Target: GST‐tagged human STING CTT (residue number: 335–379), phosphorylated (human) (UniProt Q86WV6)
Test: pull-down; competition: phosphorylated GST-STING CTT on glutathione Sepharose 4B beads, IRF3 with Sec24; 20 mM HEPES-Na pH 7.4, 200 mM NaCl, 4 mM DTT, 0.1% Triton X-100, 4 °C; SDS-PAGE; both purified

binding: binds
B1: IRF3 (protein, UniProt Q14653 1-427)
chain: MGTPKPRILPWLVSQLDLGQLEGVAWVNKSRTRFRIPWKHGLRQDAQQEDFGIFQAWAEATGAYVPGRDKPDLPTWKRNFRSALNRKEGLRLAEDRSKDPHDPHKIYEFVNSGVGDFSQPDTSPDTNGGGSTSDTQEDILDELLGNMVLAPLPDPGPPSLAVAPEPCPQPLRSPSLDNPTPFPNLGPSENPLKRLLVPGEEWEFEVTAFYRGRQVFQQTISCPEGLRLVGSEVGDRTLPGWPVTLPDPGMSLTDRGVMSYVRHVLSCLGGGLALWRAGQWLWAQRLGHCHTYWAVSEELLPNSGHGPDGEVPKDKEGGVFDLGPFIVDLITFTEGSGRSPRYALWFCVGESWPQDQPWTKRLVMVKVVPTCLRALVEMARVGGASSLENTVDLHISNSHPLSLTSDQYKAYLQDLVEGMDFQGPGES
